Assay results published in the supplement of paper PMC8728848.
The list shows a part of the results.

What was measured:
Assay in all cases: glycan array binding signal (z-score within array); higher = stronger binding
Details in all cases: glycan notation: IUPAC condensed, linker removed
[1] = biological target: Gal(b1-4)GlcNAc(b1-2)[Gal(b1-4)GlcNAc(b1-6)]Man(a1-6)[GlcNAc(b1-4)][Gal(b1-4)GlcNAc(b1-2)Man(a1-3)]Man(b1-4)GlcNAc(b1-4)GlcNAc
Outline: (§1)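 From the Consortium for Functional Glycomics database, 3228 arrays were curated, keeping only those whose protein sequence was available. Binding is given as a within-array Z-score averaged across arrays sharing a protein sequence and across linkers. Negative Z-scores can be read as non-binding.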

[2] = biological target: Gal(b1-4)GlcNAc(b1-2)[Gal(b1-4)GlcNAc(b1-6)]Man(a1-6)[GlcNAc(b1-4)][Gal(b1-4)GlcNAc(b1-2)[Gal(b1-4)GlcNAc(b1-4)]Man(a1-3)]Man(b1-4)GlcNAc(b1-4)[Fuc(a1-6)]GlcNAc
Outline: as §1

[3] = biological target: Gal(b1-4)GlcNAc(b1-3)Gal(b1-3)GalNAc
Outline: as §1

[4] = biological target: Gal(b1-4)GlcNAc(b1-3)Gal(b1-3)GlcNAc
Outline: as §1

[5] = biological target: Gal(b1-4)GlcNAc(b1-3)Gal(b1-4)Glc
Outline: as §1

[6] = biological target: Gal(b1-4)GlcNAc(b1-3)Gal(b1-4)GlcNAc
Outline: as §1

[7] = biological target: Gal(b1-4)GlcNAc(b1-3)Gal(b1-4)GlcNAc(b1-2)Man(a1-3)[Gal(b1-4)GlcNAc(b1-3)Gal(b1-4)GlcNAc(b1-2)Man(a1-6)]Man(b1-4)GlcNAc(b1-4)GlcNAc
Outline: as §1

[8] = biological target: Gal(b1-4)GlcNAc(b1-3)Gal(b1-4)GlcNAc(b1-2)Man(a1-3)[Gal(b1-4)GlcNAc(b1-3)Gal(b1-4)GlcNAc(b1-2)Man(a1-6)]Man(b1-4)GlcNAc(b1-4)[Fuc(a1-6)]GlcNAc
Outline: as §1

[9] = biological target: Gal(b1-4)GlcNAc(b1-3)Gal(b1-4)GlcNAc(b1-2)[Gal(b1-4)GlcNAc(b1-3)Gal(b1-4)GlcNAc(b1-6)]Man(a1-6)[Gal(b1-4)GlcNAc(b1-3)Gal(b1-4)GlcNAc(b1-2)Man(a1-3)]Man(b1-4)GlcNAc(b1-4)GlcNAc
Outline: as §1

[10] = biological target: Gal(b1-4)GlcNAc(b1-3)Gal(b1-4)GlcNAc(b1-2)[Gal(b1-4)GlcNAc(b1-3)Gal(b1-4)GlcNAc(b1-6)]Man(a1-6)[Gal(b1-4)GlcNAc(b1-3)Gal(b1-4)GlcNAc(b1-2)Man(a1-3)]Man(b1-4)GlcNAc(b1-4)[Fuc(a1-6)]GlcNAc
Outline: as §1

[11] = biological target: Gal(b1-4)GlcNAc(b1-3)Gal(b1-4)GlcNAc(b1-3)Gal(b1-4)GlcNAc
Outline: as §1

[12] = biological target: Gal(b1-4)GlcNAc(b1-3)Gal(b1-4)GlcNAc(b1-3)Gal(b1-4)GlcNAc(b1-2)Man(a1-3)[Gal(b1-4)GlcNAc(b1-3)Gal(b1-4)GlcNAc(b1-3)Gal(b1-4)GlcNAc(b1-2)Man(a1-6)]Man(b1-4)GlcNAc(b1-4)GlcNAc
Outline: as §1

[13] = biological target: Gal(b1-4)GlcNAc(b1-3)Gal(b1-4)GlcNAc(b1-3)Gal(b1-4)GlcNAc(b1-2)Man(a1-3)[Gal(b1-4)GlcNAc(b1-3)Gal(b1-4)GlcNAc(b1-3)Gal(b1-4)GlcNAc(b1-2)Man(a1-6)]Man(b1-4)GlcNAc(b1-4)[Fuc(a1-6)]GlcNAc
Outline: as §1

[14] = biological target: Gal(b1-4)GlcNAc(b1-3)Gal(b1-4)GlcNAc(b1-3)Gal(b1-4)GlcNAc(b1-2)[Gal(b1-4)GlcNAc(b1-3)Gal(b1-4)GlcNAc(b1-3)Gal(b1-4)GlcNAc(b1-6)]Man(a1-6)[Gal(b1-4)GlcNAc(b1-3)Gal(b1-4)GlcNAc(b1-3)Gal(b1-4)GlcNAc(b1-2)Man(a1-3)]Man(b1-4)GlcNAc(b1-4)[Fuc(a1-6)]GlcNAc
Outline: as §1

[15] = biological target: Gal(b1-4)GlcNAc(b1-3)Gal(b1-4)GlcNAc(b1-3)Gal(b1-4)GlcNAc(b1-3)Gal(b1-4)GlcNAc(b1-2)Man(a1-3)[Gal(b1-4)GlcNAc(b1-3)Gal(b1-4)GlcNAc(b1-3)Gal(b1-4)GlcNAc(b1-3)Gal(b1-4)GlcNAc(b1-2)Man(a1-6)]Man(b1-4)GlcNAc(b1-4)GlcNAc
Outline: as §1

[16] = biological target: Gal(b1-4)GlcNAc(b1-3)Gal(b1-4)GlcNAc(b1-3)Gal(b1-4)GlcNAc(b1-3)Gal(b1-4)GlcNAc(b1-2)Man(a1-3)[Gal(b1-4)GlcNAc(b1-3)Gal(b1-4)GlcNAc(b1-3)Gal(b1-4)GlcNAc(b1-3)Gal(b1-4)GlcNAc(b1-2)Man(a1-6)]Man(b1-4)GlcNAc(b1-4)[Fuc(a1-6)]GlcNAc
Outline: as §1

[17] = biological target: Gal(b1-4)GlcNAc(b1-3)Gal(b1-4)GlcNAc(b1-3)Gal(b1-4)GlcNAc(b1-3)Gal(b1-4)GlcNAc(b1-2)[Gal(b1-4)GlcNAc(b1-3)Gal(b1-4)GlcNAc(b1-3)Gal(b1-4)GlcNAc(b1-3)Gal(b1-4)GlcNAc(b1-6)]Man(a1-6)[Gal(b1-4)GlcNAc(b1-3)Gal(b1-4)GlcNAc(b1-3)Gal(b1-4)GlcNAc(b1-3)Gal(b1-4)GlcNAc(b1-2)Man(a1-3)]Man(b1-4)GlcNAc(b1-4)[Fuc(a1-6)]GlcNAc
Outline: as §1

[18] = biological target: Gal(b1-4)GlcNAc(b1-3)Gal(b1-4)GlcNAc(b1-3)Gal(b1-4)GlcNAc(b1-3)Gal(b1-4)GlcNAc(b1-3)Gal(b1-4)GlcNAc(b1-2)Man(a1-3)[Gal(b1-4)GlcNAc(b1-3)Gal(b1-4)GlcNAc(b1-3)Gal(b1-4)GlcNAc(b1-3)Gal(b1-4)GlcNAc(b1-3)Gal(b1-4)GlcNAc(b1-2)Man(a1-6)]Man(b1-4)GlcNAc(b1-4)GlcNAc
Outline: as §1

[19] = biological target: Gal(b1-4)GlcNAc(b1-3)Gal(b1-4)GlcNAc(b1-3)Gal(b1-4)GlcNAc(b1-3)Gal(b1-4)GlcNAc(b1-3)Gal(b1-4)GlcNAc(b1-2)Man(a1-3)[Gal(b1-4)GlcNAc(b1-3)Gal(b1-4)GlcNAc(b1-3)Gal(b1-4)GlcNAc(b1-3)Gal(b1-4)GlcNAc(b1-3)Gal(b1-4)GlcNAc(b1-2)Man(a1-6)]Man(b1-4)GlcNAc(b1-4)[Fuc(a1-6)]GlcNAc
Outline: as §1

[20] = biological target: Gal(b1-4)GlcNAc(b1-3)Gal(b1-4)GlcNAc(b1-3)Gal(b1-4)GlcNAc(b1-3)Gal(b1-4)GlcNAc(b1-3)Gal(b1-4)GlcNAc(b1-2)[Gal(b1-4)GlcNAc(b1-3)Gal(b1-4)GlcNAc(b1-3)Gal(b1-4)GlcNAc(b1-3)Gal(b1-4)GlcNAc(b1-3)Gal(b1-4)GlcNAc(b1-6)]Man(a1-6)[Gal(b1-4)GlcNAc(b1-3)Gal(b1-4)GlcNAc(b1-3)Gal(b1-4)GlcNAc(b1-3)Gal(b1-4)GlcNAc(b1-3)Gal(b1-4)GlcNAc(b1-2)Man(a1-3)]Man(b1-4)GlcNAc(b1-4)[Fuc(a1-6)]GlcNAc
Outline: as §1

[21] = biological target: Gal(b1-4)GlcNAc(b1-3)Gal(b1-4)GlcNAc(b1-3)Gal(b1-4)GlcNAc(b1-3)Gal(b1-4)GlcNAc(b1-3)Gal(b1-4)GlcNAc(b1-3)Gal(b1-4)GlcNAc(b1-2)Man(a1-3)[Gal(b1-4)GlcNAc(b1-3)Gal(b1-4)GlcNAc(b1-3)Gal(b1-4)GlcNAc(b1-3)Gal(b1-4)GlcNAc(b1-3)Gal(b1-4)GlcNAc(b1-3)Gal(b1-4)GlcNAc(b1-2)Man(a1-6)]Man(b1-4)GlcNAc(b1-4)GlcNAc
Outline: as §1

[22] = biological target: Gal(b1-4)GlcNAc(b1-3)Gal(b1-4)GlcNAc(b1-3)GalNAc
Outline: as §1

[23] = biological target: Gal(b1-4)GlcNAc(b1-3)Gal(b1-4)GlcNAc(b1-3)[Gal(b1-4)GlcNAc(b1-3)Gal(b1-4)GlcNAc(b1-6)]GalNAc
Outline: as §1

[24] = biological target: Gal(b1-4)GlcNAc(b1-3)Gal(b1-4)GlcNAc(b1-6)[Gal(b1-3)]GalNAc
Outline: as §1

[25] = biological target: Gal(b1-4)GlcNAc(b1-3)Gal(b1-4)[Fuc(a1-3)]GlcNAc(b1-3)Gal(b1-4)[Fuc(a1-3)]GlcNAc
Outline: as §1

[26] = biological target: Gal(b1-4)GlcNAc(b1-3)GalNAc
Outline: as §1

[27] = biological target: Gal(b1-4)GlcNAc(b1-3)[Fuc(a1-3)GlcNAc(b1-6)]Gal(b1-4)Glc
Outline: as §1

[28] = biological target: Gal(b1-4)GlcNAc(b1-3)[Gal(b1-4)GlcNAc(b1-6)]Gal(b1-4)GlcNAc
Outline: as §1

[29] = biological target: Gal(b1-4)GlcNAc(b1-3)[GlcNAc(b1-6)]Gal(b1-4)GlcNAc
Outline: as §1

[30] = biological target: Gal(b1-4)GlcNAc(b1-6)Gal(b1-4)GlcNAc
Outline: as §1

[31] = biological target: Gal(b1-4)GlcNAc(b1-6)GalNAc
Outline: as §1

[32] = biological target: Gal(b1-4)GlcNAc(b1-6)[Gal(b1-3)]GalNAc
Outline: as §1

[33] = biological target: Gal(b1-4)GlcNAc(b1-6)[Gal(b1-4)GlcNAc(b1-3)]GalNAc
Outline: as §1

Gal(b1-4)GlcNAc6P = biological target: Gal(b1-4)GlcNAc6P
Outline: as §1

Gal(b1-6)Gal = biological target: Gal(b1-6)Gal
Outline: as §1

Gal3S(b1-3)GalNAc = biological target: Gal3S(b1-3)GalNAc
Outline: as §1

Gal3S(b1-3)GlcNAc = biological target: Gal3S(b1-3)GlcNAc
Outline: as §1

[34] = biological target: Gal3S(b1-3)[Fuc(a1-4)]GlcNAc
Outline: as §1

B1: PX9961M-bvu-482-23-482 (Bacteroides vulgatus) (protein)
chain: WLDLAPSTQVDTETSINVLSDIEFTLNGIYSTMQSSDAYSGRLVYYGDVTGDDMQAVSSTKRTGNYYRFNFTKDNGPSSHWSYLYSIIQNCNLILMNVDKLSIDEDETEYKNDLKGQALAIRGMALFDLTRIFGYPYLKDNGASLGVPIVKELSTIDSKPARNTVAECYTEIISDLKNSTELLSGDFNKGKVNRWAAMTLLSRVYLYKGEYNEALTMAENAIKGAEKEGYALWTNEEYPTAWGNDASASNPGEILFEIVNLTTDSPGKESMGYLNSYNGYDDMCITCSFYQLLKKDPKDVRLKILSFDKKYYAYVNKYQPQQGENITDANIPLIRLSEAYLNAAEAAVQTGDNAKAVKYLNSIVQRANPENSVEGKTLTLENVLDERRKELVAEGHRMYDVIRNGMTVKRIDVKDSDINKTKHNTAYMEYDWNFHKILLPIPKKEMDANPNMKQNPGYVD
glycan array binding signal (z-score) [1]: -0.402 | glycan array binding signal (z-score) [2]: -0.596 | glycan array binding signal (z-score) [3]: -1.18 | glycan array binding signal (z-score) [4]: -0.923 | glycan array binding signal (z-score) [5]: -0.05 | glycan array binding signal (z-score) [6]: 0.139 | glycan array binding signal (z-score) [7]: 0.706 | glycan array binding signal (z-score) [8]: 0.79 | glycan array binding signal (z-score) [9]: 0.199 | glycan array binding signal (z-score) [10]: 0.458 | glycan array binding signal (z-score) [11]: -0.219 | glycan array binding signal (z-score) [12]: 1.88 | glycan array binding signal (z-score) [13]: 0.835 | glycan array binding signal (z-score) [14]: 0.426 | glycan array binding signal (z-score) [15]: 0.439 | glycan array binding signal (z-score) [16]: 0.966 | glycan array binding signal (z-score) [17]: 1.6 | glycan array binding signal (z-score) [18]: 0.29 | glycan array binding signal (z-score) [19]: 0.609 | glycan array binding signal (z-score) [20]: 0.608 | glycan array binding signal (z-score) [21]: -0.069 | glycan array binding signal (z-score) [22]: 0.796 | glycan array binding signal (z-score) [23]: 0.51 | glycan array binding signal (z-score) [24]: 0.544 | glycan array binding signal (z-score) [25]: -0.719 | glycan array binding signal (z-score) [26]: -0.553 | glycan array binding signal (z-score) [27]: 0.544 | glycan array binding signal (z-score) [28]: -0.18 | glycan array binding signal (z-score) [29]: -0.692 | glycan array binding signal (z-score) [30]: -0.524 | glycan array binding signal (z-score) [31]: 1.05 | glycan array binding signal (z-score) [32]: 0.078 | glycan array binding signal (z-score) [33]: -0.462 | glycan array binding signal (z-score) (Gal(b1-4)GlcNAc6P): -0.498 | glycan array binding signal (z-score) (Gal(b1-6)Gal): -0.063 | glycan array binding signal (z-score) (Gal3S(b1-3)GalNAc): -0.129 | glycan array binding signal (z-score) (Gal3S(b1-3)GlcNAc): -0.1 | glycan array binding signal (z-score) [34]: -0.341
